Some of the results follow. The data scatter; read single values as rough.
Legend:
[1] = compound: ClCC(=O)N[C@@H]1CCCc2ccccc12; test: log2 mean competition ratio of IA-DTB cysteine labelling (DMSO/compound) (log2 ratio); higher = stronger cysteine engagement by compound; conditions: treatment time: 4 h, cell line lysate: HEK293T
Experimental: (§1)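 IA-DTB competitive cysteine chemoproteomics in HEK293T RIPA lysate. Lysates were treated with compound 29 or 30 at 50 or 200 µM for 4 h, then IA-DTB (500 µM, 1 h), trypsin-digested, NeutrAvidin-enriched and analysed by diaPASEF. Competition ratio = intensity DMSO / intensity compound (n=4 treated, n=64 DMSO); binding: mean log2 CR ≥ 1 and p ≤ 0.05 plus QC filters. Target is the cysteine site.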

Amino acid sequences for entries named in this document (tags omitted). A change or cut given only in a name is not applied to a line headed by its entry.
UniProt Q92766: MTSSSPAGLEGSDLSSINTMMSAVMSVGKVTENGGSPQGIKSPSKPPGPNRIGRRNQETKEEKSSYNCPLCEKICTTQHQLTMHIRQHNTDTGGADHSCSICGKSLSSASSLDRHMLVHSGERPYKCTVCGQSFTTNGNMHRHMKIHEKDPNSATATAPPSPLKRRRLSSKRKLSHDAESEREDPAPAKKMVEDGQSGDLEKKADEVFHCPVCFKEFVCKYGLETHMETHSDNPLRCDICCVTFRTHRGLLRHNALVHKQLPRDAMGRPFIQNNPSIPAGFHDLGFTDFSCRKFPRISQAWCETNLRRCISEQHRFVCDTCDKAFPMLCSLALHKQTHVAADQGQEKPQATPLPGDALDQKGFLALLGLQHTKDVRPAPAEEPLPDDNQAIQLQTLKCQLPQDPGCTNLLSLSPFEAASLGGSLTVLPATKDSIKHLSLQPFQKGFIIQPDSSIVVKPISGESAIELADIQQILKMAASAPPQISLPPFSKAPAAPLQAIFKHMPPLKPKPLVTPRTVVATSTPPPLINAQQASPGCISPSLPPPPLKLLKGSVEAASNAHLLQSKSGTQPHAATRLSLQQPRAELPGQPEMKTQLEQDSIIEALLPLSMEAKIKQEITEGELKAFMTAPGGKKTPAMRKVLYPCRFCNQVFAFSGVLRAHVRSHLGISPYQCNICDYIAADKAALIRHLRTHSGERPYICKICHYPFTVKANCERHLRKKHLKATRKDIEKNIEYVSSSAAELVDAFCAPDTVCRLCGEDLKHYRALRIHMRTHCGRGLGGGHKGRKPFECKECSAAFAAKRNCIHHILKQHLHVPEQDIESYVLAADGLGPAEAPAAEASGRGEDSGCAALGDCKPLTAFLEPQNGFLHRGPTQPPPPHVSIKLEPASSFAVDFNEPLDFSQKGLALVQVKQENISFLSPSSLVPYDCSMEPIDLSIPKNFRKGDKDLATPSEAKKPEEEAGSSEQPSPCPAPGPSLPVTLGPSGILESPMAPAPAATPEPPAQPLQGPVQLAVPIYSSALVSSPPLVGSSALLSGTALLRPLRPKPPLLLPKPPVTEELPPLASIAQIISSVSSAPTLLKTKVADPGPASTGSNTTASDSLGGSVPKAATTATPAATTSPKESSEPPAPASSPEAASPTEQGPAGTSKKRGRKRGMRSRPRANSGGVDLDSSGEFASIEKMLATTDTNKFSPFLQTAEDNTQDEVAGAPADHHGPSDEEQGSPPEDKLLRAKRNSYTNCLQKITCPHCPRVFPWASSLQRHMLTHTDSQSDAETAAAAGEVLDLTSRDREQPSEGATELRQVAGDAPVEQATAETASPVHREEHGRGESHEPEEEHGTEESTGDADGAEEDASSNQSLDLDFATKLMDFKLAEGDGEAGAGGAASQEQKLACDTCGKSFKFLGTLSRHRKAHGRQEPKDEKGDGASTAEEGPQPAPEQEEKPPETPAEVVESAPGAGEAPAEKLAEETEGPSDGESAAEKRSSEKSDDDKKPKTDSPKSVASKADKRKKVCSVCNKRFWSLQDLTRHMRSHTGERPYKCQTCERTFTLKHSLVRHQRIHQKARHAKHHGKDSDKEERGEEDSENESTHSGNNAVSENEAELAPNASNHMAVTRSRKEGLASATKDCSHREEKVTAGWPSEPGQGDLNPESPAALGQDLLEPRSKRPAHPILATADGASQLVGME
UniProt P23921: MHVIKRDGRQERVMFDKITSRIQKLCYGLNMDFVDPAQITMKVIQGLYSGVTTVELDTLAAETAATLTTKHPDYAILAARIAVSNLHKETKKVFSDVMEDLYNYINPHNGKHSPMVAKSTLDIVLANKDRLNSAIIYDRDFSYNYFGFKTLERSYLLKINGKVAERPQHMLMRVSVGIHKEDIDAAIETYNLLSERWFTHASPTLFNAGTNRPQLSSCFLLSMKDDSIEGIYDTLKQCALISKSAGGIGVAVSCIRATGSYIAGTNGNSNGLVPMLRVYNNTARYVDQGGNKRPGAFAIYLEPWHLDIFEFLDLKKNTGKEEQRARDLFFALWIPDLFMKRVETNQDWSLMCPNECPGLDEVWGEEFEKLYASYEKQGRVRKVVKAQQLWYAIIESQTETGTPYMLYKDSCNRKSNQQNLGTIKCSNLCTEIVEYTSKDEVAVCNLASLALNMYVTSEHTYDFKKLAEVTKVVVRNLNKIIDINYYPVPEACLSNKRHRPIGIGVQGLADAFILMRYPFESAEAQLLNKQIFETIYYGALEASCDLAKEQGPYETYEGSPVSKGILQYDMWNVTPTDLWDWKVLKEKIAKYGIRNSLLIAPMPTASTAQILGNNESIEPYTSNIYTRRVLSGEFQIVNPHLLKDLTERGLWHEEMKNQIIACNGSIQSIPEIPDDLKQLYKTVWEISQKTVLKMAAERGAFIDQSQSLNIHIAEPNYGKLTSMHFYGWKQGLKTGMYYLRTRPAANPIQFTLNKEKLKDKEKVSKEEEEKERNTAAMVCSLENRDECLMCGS
UniProt Q5VWQ0: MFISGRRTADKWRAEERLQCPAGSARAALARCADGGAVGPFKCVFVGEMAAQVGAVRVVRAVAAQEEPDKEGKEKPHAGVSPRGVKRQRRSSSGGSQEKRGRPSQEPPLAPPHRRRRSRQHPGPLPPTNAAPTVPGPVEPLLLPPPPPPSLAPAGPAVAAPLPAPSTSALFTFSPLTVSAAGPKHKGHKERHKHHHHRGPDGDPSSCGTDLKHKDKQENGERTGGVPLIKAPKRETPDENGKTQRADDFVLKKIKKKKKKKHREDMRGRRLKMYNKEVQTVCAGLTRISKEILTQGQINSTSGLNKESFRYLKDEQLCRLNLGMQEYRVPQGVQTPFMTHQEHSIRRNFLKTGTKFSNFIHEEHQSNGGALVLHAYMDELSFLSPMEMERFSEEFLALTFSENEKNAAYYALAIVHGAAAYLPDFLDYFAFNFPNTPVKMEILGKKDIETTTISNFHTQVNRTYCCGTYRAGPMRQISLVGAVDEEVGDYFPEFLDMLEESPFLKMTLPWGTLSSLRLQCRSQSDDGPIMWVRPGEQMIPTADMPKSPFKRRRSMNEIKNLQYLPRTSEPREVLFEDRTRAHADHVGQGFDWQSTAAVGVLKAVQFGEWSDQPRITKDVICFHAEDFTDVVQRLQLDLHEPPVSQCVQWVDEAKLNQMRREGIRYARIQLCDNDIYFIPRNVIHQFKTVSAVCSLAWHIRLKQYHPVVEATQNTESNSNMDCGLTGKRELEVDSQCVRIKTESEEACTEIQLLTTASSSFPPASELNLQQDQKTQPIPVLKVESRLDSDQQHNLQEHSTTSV
UniProt Q96S38: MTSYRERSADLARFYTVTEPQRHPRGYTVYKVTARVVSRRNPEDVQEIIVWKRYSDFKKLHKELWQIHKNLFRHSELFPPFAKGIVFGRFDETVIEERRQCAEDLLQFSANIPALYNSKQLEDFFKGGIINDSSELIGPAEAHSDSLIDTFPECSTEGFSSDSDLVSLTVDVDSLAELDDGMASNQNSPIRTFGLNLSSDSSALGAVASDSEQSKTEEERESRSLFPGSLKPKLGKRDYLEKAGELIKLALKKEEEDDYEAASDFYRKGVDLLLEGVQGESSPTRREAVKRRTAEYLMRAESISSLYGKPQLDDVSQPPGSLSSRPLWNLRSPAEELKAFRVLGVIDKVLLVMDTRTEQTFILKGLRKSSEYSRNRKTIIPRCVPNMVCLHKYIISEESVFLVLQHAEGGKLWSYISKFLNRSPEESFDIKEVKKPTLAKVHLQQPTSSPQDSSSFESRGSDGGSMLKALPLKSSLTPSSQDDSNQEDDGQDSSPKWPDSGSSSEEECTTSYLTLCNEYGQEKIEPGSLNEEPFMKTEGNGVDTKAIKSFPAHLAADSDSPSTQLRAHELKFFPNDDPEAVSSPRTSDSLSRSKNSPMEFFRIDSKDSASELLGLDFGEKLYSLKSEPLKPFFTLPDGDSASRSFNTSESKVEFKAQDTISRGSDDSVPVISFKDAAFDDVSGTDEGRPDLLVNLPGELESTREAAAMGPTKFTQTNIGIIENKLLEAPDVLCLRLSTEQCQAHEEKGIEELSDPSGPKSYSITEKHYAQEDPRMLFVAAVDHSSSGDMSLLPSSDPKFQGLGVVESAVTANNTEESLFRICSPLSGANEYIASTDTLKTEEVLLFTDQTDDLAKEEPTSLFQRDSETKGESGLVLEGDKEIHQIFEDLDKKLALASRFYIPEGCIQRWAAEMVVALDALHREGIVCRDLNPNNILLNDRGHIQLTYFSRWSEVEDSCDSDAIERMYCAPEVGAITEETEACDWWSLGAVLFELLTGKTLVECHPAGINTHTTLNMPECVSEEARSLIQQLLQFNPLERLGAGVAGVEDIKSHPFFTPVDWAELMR
UniProt A6NKF1: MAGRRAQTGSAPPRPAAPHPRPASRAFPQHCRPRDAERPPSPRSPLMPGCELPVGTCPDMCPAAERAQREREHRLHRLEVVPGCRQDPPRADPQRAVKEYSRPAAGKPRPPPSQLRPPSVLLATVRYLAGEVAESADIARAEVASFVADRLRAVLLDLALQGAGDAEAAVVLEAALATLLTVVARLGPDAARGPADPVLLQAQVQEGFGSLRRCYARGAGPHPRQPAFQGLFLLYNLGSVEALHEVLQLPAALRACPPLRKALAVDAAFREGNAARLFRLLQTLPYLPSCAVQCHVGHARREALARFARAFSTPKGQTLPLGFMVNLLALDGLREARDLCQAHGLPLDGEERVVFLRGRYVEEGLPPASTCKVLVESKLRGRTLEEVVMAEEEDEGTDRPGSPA
UniProt Q9NZ71: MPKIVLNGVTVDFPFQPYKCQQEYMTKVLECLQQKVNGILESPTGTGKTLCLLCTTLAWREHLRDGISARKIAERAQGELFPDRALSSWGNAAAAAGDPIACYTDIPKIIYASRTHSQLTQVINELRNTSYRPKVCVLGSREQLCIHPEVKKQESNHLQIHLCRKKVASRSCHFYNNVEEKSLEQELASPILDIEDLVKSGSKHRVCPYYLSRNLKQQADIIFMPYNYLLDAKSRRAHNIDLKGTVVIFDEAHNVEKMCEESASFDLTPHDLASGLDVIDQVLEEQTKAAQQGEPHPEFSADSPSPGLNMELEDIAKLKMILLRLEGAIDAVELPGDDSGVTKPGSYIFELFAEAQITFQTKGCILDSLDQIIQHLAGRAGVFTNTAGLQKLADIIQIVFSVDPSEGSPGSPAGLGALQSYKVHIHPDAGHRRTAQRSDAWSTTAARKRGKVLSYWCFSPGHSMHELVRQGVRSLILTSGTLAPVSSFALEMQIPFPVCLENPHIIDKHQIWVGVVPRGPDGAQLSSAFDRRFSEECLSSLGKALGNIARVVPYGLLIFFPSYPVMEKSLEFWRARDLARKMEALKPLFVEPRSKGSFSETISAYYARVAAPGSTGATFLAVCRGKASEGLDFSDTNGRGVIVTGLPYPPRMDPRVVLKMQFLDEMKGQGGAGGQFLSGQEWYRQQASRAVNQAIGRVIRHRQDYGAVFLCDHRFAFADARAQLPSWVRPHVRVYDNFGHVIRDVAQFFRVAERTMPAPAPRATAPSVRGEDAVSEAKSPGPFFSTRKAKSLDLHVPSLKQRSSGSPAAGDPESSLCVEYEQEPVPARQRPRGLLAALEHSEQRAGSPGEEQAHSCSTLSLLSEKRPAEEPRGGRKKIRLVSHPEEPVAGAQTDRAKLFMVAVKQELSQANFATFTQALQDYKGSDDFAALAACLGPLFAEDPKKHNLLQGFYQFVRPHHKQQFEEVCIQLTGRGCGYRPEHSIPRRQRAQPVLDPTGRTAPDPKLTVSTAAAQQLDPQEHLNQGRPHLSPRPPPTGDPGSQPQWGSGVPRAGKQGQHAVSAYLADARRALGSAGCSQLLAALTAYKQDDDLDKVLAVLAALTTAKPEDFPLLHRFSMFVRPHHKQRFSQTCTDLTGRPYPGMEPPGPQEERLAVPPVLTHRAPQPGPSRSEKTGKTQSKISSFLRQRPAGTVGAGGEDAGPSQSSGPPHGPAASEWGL
UniProt Q96P16: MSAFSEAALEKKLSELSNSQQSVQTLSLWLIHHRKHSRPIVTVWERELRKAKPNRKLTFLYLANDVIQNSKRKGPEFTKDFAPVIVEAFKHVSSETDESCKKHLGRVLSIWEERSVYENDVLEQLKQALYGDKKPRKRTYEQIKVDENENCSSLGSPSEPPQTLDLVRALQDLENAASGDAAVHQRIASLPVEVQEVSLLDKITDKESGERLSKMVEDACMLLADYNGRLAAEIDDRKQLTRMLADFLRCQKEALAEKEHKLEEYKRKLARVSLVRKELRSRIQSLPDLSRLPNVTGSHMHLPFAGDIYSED
UniProt Q9UBF6, whole entry, looked up: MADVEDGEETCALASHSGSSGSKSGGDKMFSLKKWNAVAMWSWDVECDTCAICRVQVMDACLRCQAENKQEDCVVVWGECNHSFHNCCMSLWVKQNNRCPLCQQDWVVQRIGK

[2] = compound: ClCC(=O)N[C@H]1CCCc2ccccc12; test: as above; conditions: treatment time: 4 h, cell line lysate: HEK293T
Experimental: as §1

Target | log2 mean competition ratio ([1]; 50 µM) | log2 mean competition ratio ([1]; 200 µM) | log2 mean competition ratio ([2]; 50 µM) | log2 mean competition ratio ([2]; 200 µM)
RREB1 C1242 (UniProt Q92766) | 0.479 | -0.0605 | 0.275 | 0.312
RRM1 C492 (UniProt P23921) | -0.0473 | -0.133 | -0.141 | -0.24
RSBN1 C736 (UniProt Q5VWQ0) | -0.144 | 0.247 | 0.0958 | 0.275
RPS6KC1 C733 (UniProt Q96S38) |  | 0.157 | 0.305 | 0.589
RNF150 C304 |  | -0.034 | -0.346 | -0.194
RNF213 C1064 | -0.0199 | -0.0797 | -0.162 | 0.00748
RNF213 C856 | -0.145 | -0.102 | -0.0443 | -0.24
RNASEL C395 (UniProt Q05823) | -0.0354 | 0.101 | 0.385 | -0.0481
SAC3D1 C84 (UniProt A6NKF1) | 0.199 | -0.216 | 0.0799 | -0.0855
RTEL1 C20 (UniProt Q9NZ71) | 0.137 | -0.15 | 0.861 | 0.177
RPRD1A C100 (UniProt Q96P16) | -0.071 | 0.159 | -0.0431 | 0.0866
RNF7 C61 (UniProt Q9UBF6) | 0.484 | 0.12 | 0.66 | 0.24
RPL27A C70 (UniProt P46776) | 0.327 | -0.144 | 0.649 | 0.00118
RNF40 C890 (UniProt O75150) | 0.235 | 0.234 | 0.183 | 0.0923
RPL10 C105 | 0.111 | 0.295 | 0.142 | 0.182
RNF213 C1748 | 0.0769 | 0.189 | 0.0237 | 0.187
RPRD1A C220 (UniProt Q96P16) | -0.0528 | 0.0266 | 0.218 | -0.402

A few values from the results shown.
For log2 mean competition ratio ([2]; 50 µM), RPRD1A C220 (UniProt Q96P16) is listed with 0.218
For log2 mean competition ratio ([1]; 200 µM), RPRD1A C100 (UniProt Q96P16) is listed with 0.159

— the supplement of paper PMC11732987, “Enantioselective OTUD7B fragment discovery through chemoproteomics screening and high-throughput optimisation” (Communications Chemistry, 2025)
